Results on 86 sequences are retold here after the supplement of paper PMC3334620.

The full ranking holds about 33,000 sequences; the median of “E-score (-0.5 to 0.5)” is about -0.015, and the highest 2% start at about 0.3. Some of the results follow.

In the test the target is T1, Abf1 (UniProt P14164).
T1 sequence: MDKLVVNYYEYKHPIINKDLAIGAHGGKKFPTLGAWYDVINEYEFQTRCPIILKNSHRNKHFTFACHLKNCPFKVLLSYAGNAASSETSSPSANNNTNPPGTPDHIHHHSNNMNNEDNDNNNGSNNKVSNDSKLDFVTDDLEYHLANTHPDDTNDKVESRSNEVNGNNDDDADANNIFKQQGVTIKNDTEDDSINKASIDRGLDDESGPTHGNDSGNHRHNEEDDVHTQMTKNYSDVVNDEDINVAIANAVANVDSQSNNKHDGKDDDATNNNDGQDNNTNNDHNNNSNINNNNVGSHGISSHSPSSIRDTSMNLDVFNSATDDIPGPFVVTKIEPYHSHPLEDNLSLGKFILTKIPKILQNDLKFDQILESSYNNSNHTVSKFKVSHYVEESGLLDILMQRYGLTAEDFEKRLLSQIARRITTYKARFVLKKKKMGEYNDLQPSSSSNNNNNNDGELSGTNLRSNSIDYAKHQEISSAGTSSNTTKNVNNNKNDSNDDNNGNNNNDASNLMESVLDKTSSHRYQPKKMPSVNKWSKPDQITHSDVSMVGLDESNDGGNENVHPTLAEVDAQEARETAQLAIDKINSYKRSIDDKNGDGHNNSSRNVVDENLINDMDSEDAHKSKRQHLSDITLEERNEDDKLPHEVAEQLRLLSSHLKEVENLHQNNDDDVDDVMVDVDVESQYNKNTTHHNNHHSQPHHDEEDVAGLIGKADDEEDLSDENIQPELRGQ
The test can be described thus: PBM E-score (8-mer binding enrichment) (E-score (-0.5 to 0.5)); higher = stronger / more preferred TF binding. Particulars: protein concentration: 200 nM; construct: GST-full length. The procedure:
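Universal 'all 10-mer' protein binding microarrays (Agilent AMADID 015681) probed with GST-tagged S. cerevisiae TFs (full-length or DBD) made by in vitro transcription/translation (PURExpress), about 100-200 nM. Bound TF was detected with fluorescent anti-GST. Each ungapped 8-mer (which stands for itself and its reverse complement) is scored by the PBM enrichment score (E-score), a modified Wilcoxon-Mann-Whitney statistic from -0.5 to +0.5, computed with the Universal PBM Analysis Suite. Scale: above 0.35 generally sequence-specific binding.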
As to CAAACCAA, the “PBM E-score” value was 0.0789. Then ACACGCGG, with -0.0001; and GCTACACC, with -0.241.

ATATAGCA: the “PBM E-score” value is 0.00804. On to GCCTGGAA, for which the “PBM E-score” value was -0.0478. As for ACATGTAG, the “PBM E-score” value is 0.0945. As to CGTTCAGA, the “PBM E-score” value stood at 0.0456. In the case of AGTACAAA, the “PBM E-score” value came to 0.101.

With CGGCGATA, the “PBM E-score” value is 0.235. Then AAACTGCC, with 0.0924; and CGCTACCC, with -0.216.

As to CAACACTG, the “PBM E-score” value was -0.0999. In the case of CGATAACA, the “PBM E-score” value was determined as 0.106. Regarding ATGATGCA, the “PBM E-score” value was 0.309. Take ATTGCATA: the “PBM E-score” value was -0.0436.

With ACACAAAT, the “PBM E-score” value was found to be 0.104.

Take AAGCATGG: the “PBM E-score” value was -0.173. Then ACTGATAT, with 0.108. For AGCTAACC, the “PBM E-score” value is -0.227.

Regarding AACACGAG, the “PBM E-score” value worked out at 0.15.

Turning to CCGCAGAG, the “PBM E-score” value is -0.139. With AACCGCGC, the “PBM E-score” value turned out to be 0.0269. GAAGTTCA: the “PBM E-score” value was -0.0443. With AGGGCCGC, the “PBM E-score” value was -0.266. Then AACCAGGT, with -0.199; and ACTTTCGC, with 0.046; and AGGTGGAG, with -0.0877. In the case of CGATGCGA, the “PBM E-score” value was 0.0445.

With CTAGCTAG, the “PBM E-score” value was -0.0715. Then GAAACAAA, with 0.0874. Consider GCTAGTCC, for which the “PBM E-score” value is -0.111. Next, AGCGACCT: -0.0649; AATTCTCA: 0.0764. With AAAGAAAG, the “PBM E-score” value is 0.123. Take AGACGACC: the “PBM E-score” value was 0.0722. Next, AGCTCTGA: -0.101. Turning to AATAGCAT, the “PBM E-score” value is 0.017.

In the case of CCGGTTGA, the “PBM E-score” value is -0.124. Regarding ATCGTGGC, the “PBM E-score” value was 0.095. Take TGCAAAAA: the “PBM E-score” value stood at 0.127.

Turning to GGGGATTA, the “PBM E-score” value is -0.0416.

For the sequence ATTTCTCG, the “PBM E-score” value is 0.19. In the case of GTACGGAC, the “PBM E-score” value turned out to be 0.174. With GGCTGCCC, the “PBM E-score” value was -0.152. On to GAATTACC, for which the “PBM E-score” value was -0.0942. On to ACGAGCGG, for which the “PBM E-score” value stood at 0.0685. For the sequence AGGAGCGC, the “PBM E-score” value is -0.0184.

Take GGCTGATA: the “PBM E-score” value was 0.0363. Then ATCCCGGA, with -0.0679; and CAACCAGC, with -0.239; and AAATGGAT, with 0.0588. Next, ACAGGGGG: -0.357; GCGCCAGC: -0.233. For CGAGTATC, the “PBM E-score” value was determined as 0.0111. Take CATTTACC: the “PBM E-score” value turned out to be 0.0441. With CGTTTCAG, the “PBM E-score” value stood at 0.115. As to AGCATGAG, the “PBM E-score” value was -0.00821. Regarding ACGTACCC, the “PBM E-score” value is 0.125. Then CACAGTCA, with -0.0568; and AATATGTG, with 0.281.

For the sequence GTGTGGGA, the “PBM E-score” value is -0.12.

Turning to CATTCATC, the “PBM E-score” value is -0.068. For CGAAAACG, the “PBM E-score” value was 0.122. Then TCAGCGGA, with -0.033; and CGTCAAAG, with 0.253; and CCTTATAA, with -0.0107. For CGGATGGA, the “PBM E-score” value is 0.0665. As to AATGATCT, the “PBM E-score” value stood at 0.324.

Take GCCTTATA: the “PBM E-score” value was 0.0222. Then AGGATTAT, with -0.193; and AGCATACC, with 0.0866. CCAAAAGC: the “PBM E-score” value was -0.0875.

CAGGCATC: the “PBM E-score” value is -0.0494.

Regarding ACAGTACC, the “PBM E-score” value is -0.0206.

With ATCGAACC, the “PBM E-score” value worked out at 0.0242. For ACAACTCG, the “PBM E-score” value was determined as 0.0757. Regarding TTCTAGAA, the “PBM E-score” value turned out to be 0.0597. For the sequence ACAACTGG, the “PBM E-score” value came to 0.00703. Next, ACGGGTCC: 0.142. With ATTACCAG, the “PBM E-score” value was -0.0844. Consider ACATCTCA, for which the “PBM E-score” value was found to be 0.0619. Next, ACCGCGCG: 0.0205; TATCCTGA: 0.166; ATAAGACG: 0.116. Next, CGTGACTC: -0.0266; GATATCCA: 0.233.
